Source: PubChem BioAssay AID602313 (National Center for Advancing Translational Sciences (NCATS), 2012)
About 760 (0.19%) of roughly 390,000 compounds were called active. The inconclusive results got no clear call from the source; some entries with a clear call stand among them for comparison. Calls follow the shape of the dose curve; as a rule, active = well fitted inhibition curve with a large enough effect; inconclusive = small, poorly fitted or top-dose-only effect; inactive = flat fitted curve, though single readings scatter. Potencies beside an inconclusive call are fits to weak or partial responses and may not hold up.

Test: qHTS for Inhibitors of Vif-A3F Interactions: qHTS; also: nearly all actives have a fitted effect of over 65% in size; as to activity, negative = active: % of control where 0% means no effect
Conditions: HeLa A3F-eYFP + Vif (tagged APOBEC3F with the HIV-1 protein that degrades it), YFP fluorescence increase; series mostly up to 46.1 µM; activity, negative = active: at the top concentration
Outline: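 Fluorescence increase (Ex 488/Em 500-530) after overnight compound treatment at 37 deg C flags inhibition of Vif-driven A3F-eYFP loss in stable HeLa A3F-eYFP/Vif cells seeded overnight beforehand.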
Potency is read from the fitted curve at half-maximal effect.

Row | SMILES | Potency | activity, negative = active
1 | CCN(CC)C(=O)C(=O)N/N=C/c1ccc(F)cc1 | inconclusive: 5.62 µM [inhibitor, single point] | –
2 | COc1ccc(C)cc1Nc1n[n+](-c2ccccc2)c(-c2c(OC)ccc3ccccc23)s1 | inconclusive: 35.5 µM [inhibitor, single point] | –
3 | C=CCOc1cccc(/C=C/c2nc3ccccc3c(=O)[nH]2)c1 | inconclusive: 35.5 µM [inhibitor, single point] | –
4 | O=C(Nc1c(C(=O)c2ccccc2)oc2ccccc12)c1cc(-c2ccccc2O)n[nH]1 | inconclusive: 35.5 µM [inhibitor, single point] | –
5 | CC1=CC(=C(C#N)C#N)c2ccccc2N1C | inconclusive: 35.5 µM [inhibitor, single point] | –
6 | Cc1cc(/C=C(/C#N)c2nc3ccccc3[nH]2)c(C)n1-c1ccccc1C(=O)O | inconclusive: 35.5 µM [inhibitor, partial curve, poor fit] | –
7 | COc1ccc(C)cc1NC(=O)CSc1nc2scc(C)c2c(=O)[nH]1 | inconclusive: 22.4 µM [inhibitor, single point] | –
8 | COc1cccc(C(=O)Nc2ccc(NC(=O)C3CCCCC3)nc2)c1 | inconclusive: 5.62 µM [inhibitor, single point] | –
9 | Cc1n[nH]c(C)c1CCN(C)Cc1cn(C)nc1-c1ccc2c(c1)OCCO2 | inconclusive: 0.794 µM [inhibitor, full curve, poor fit] | –
10 | COc1cc(/C=C2\SC(=S)N(NS(=O)(=O)c3ccccc3)C2=O)ccc1O | inconclusive: 20 µM [inhibitor, partial curve, poor fit] | –
11 | CC(=O)Nc1cccc(NC(=O)c2cc(-c3ccccn3)nc3ccc(Cl)cc23)c1 | inconclusive: 17.8 µM [inhibitor, single point] | –
12 | COc1ccc2nc(NC3=NC(c4ccccc4)CC(=O)N3)nc(C)c2c1 (stereo not given) | inconclusive: 35.5 µM [inhibitor, single point] | –
13 | CN(C)c1ccc(/C=N\Nc2ccccn2)cc1 | inconclusive: 12.6 µM [inhibitor, partial curve, poor fit] | –
14 | O=P(CCCCCCCCCP(=O)(c1ccccc1)c1ccccc1)(c1ccccc1)c1ccccc1 | inconclusive: 10 µM [inhibitor, partial curve] | –
15 | OCCNCCOc1ccccc1F | – | inactive: 4.25%
16 | COc1ccc(N=c2oc3c(OC)cccc3cc2C(=O)NCc2ccco2)cc1OC | inconclusive: 20 µM [inhibitor, single point] | –
17 | S=C(NN=Cc1ccccn1)Nc1ccccn1 | active: 11.2 µM | –
18 | CCN1CCCC1CN(Cc1cc2ccc(C)cc2[nH]c1=O)C(=S)Nc1ccc(OC)cc1OC (stereo not given) | – | inactive: 3.62%
19 | Cc1nc2scc(-c3ccccc3)c2c(=O)n1N | – | inactive: 2.9%
20 | Oc1ccc(N2CCN(C(=S)NCc3ccccc3)CC2)cc1 | inconclusive: 3.16 µM [inhibitor, single point] | –
21 | Cc1cc(C)cc(NC(=O)C(Nc2ccccc2)c2ccccc2)c1 (stereo not given) | – | inactive: 0.362%
22 | Cc1ccccc1-c1ncc(CN2CCC(CO)(CCCc3ccccc3)CC2)cn1 | – | inactive: -8.77%
23 | COc1ccc(Nc2nc3cc(C)ccc3cc2C#N)c(OC)c1 | inconclusive: 20 µM [inhibitor, single point] | –
24 | CC1CC(=O)Nc2ccccc2N1C(=O)CSc1ccc2ccccc2n1 (stereo not given) | inconclusive: 35.5 µM [inhibitor, single point] | –

Row | SMILES | Potency | activity, negative = active
25 | CC1(C)Cc2c(C#N)c(N3CCN(C(=O)c4ccccc4Cl)CC3)nc(-c3ccco3)c2CS1 | – | inactive: -10.2%
26 | CCCN(CCC)CCNC(=O)c1cc2c(-c3ccc(Cl)cc3)nn(C)c2s1 | inconclusive: 11.2 µM [inhibitor, single point] | –
27 | CCOC(=O)C1=C(C)NC(C)=C(C(=O)OCC)C1/C=C/c1ccccc1OC | – | inactive: -7.37%
28 | COc1ccc(C(=O)OCCN2C(=O)c3ccccc3C2=O)cc1 | – | inactive: -9.19%
29 | COC(=O)c1cc2c(ccn2-c2ccc(F)cc2)n1Cc1ccc(OC(C)=O)cc1 | inconclusive: 31.6 µM [inhibitor, single point] | –
30 | COc1cccc(NC2c3ccccc3C(=O)N2Cc2ccccc2Cl)c1 (stereo not given) | – | inactive: -19.1%
31 | CC(C)c1cccc(-c2ccc3c(c2)S(=O)(=O)c2cccc(C(=O)NCc4ccccc4Cl)c2C3=O)c1 | active: 11.2 µM | –
32 | Cc1ccc2c(c1)N(C)/C(=C/c1cccc[n+]1CCO)S2 | active: 12.6 µM | –
33 | COc1ccc(C(=O)Cc2ccccc2)cc1OC | inconclusive: 15.8 µM [inhibitor, single point] | –
34 | Cc1cc2[nH]c3c(c[n+](C)c4ccccc34)c2cc1C | inconclusive: 3.55 µM [inhibitor, single point] | –
35 | Oc1ccc2oc3c(c2c1/C=N/n1cnnc1)CCCC3 | inconclusive: 20 µM [inhibitor, single point] | –
36 | Cc1ccc(NC(=S)NC(=O)CC2CC(C)(C)OC2=O)cc1 (stereo not given) | inconclusive: 5.62 µM [inhibitor, single point] | –
37 | Cc1ccc(NC(=S)Nc2cccc3ccccc23)cc1 | inconclusive: 35.5 µM [inhibitor, single point] | –
38 | COc1ccc(C(=O)Nc2cc(C)on2)cc1[N+](=O)[O-] | inconclusive: 10 µM [inhibitor, partial curve] | –
39 | C=CCn1c(=S)[nH]c2cc(-c3ccccc3)sc2c1=O | inconclusive: 3.16 µM [inhibitor, single point] | –
40 | NC(=NCCc1ccccc1)NC(=O)c1cc(Cl)ccc1O | inconclusive: 6.31 µM [inhibitor, single point] | –
41 | COc1ccccc1/C=C/C=NC1C(=O)N(c2ccccc2)[N+](C)=C1C (stereo not given) | inconclusive: 35.5 µM [inhibitor, single point] | –
42 | COc1ccc(-n2cc(C(=O)c3cc(Cl)ccc3O)cc(C#N)c2=O)cc1 | – | inactive: -2.48%
43 | Cc1[nH]c2ccccc2c1/C=N/Nc1ccc([N+](=O)[O-])cc1 | active: 10 µM | –
44 | CC1CC(CN)CC(CO)C1 (stereo not given) | inconclusive: 5.62 µM [inhibitor, single point] | –
45 | COc1ccc(CN2CCN(C(=O)c3ccccc3F)CC2)c(OC)c1OC | inconclusive: 22.4 µM [inhibitor, single point] | –
46 | CCN1C(=O)/C(=C\N2CCN(c3cccc(Cl)c3)CC2)SC1=S | inconclusive: 17.8 µM [inhibitor, single point] | –
47 | O=C(CSc1ccc(Cl)cc1)Nc1nnc(-c2ccco2)o1 | inconclusive: 4.47 µM [inhibitor, full curve] | –
48 | Cc1ccc(C(=O)Nc2cccc(-c3nc4ccccc4o3)c2)c(Cl)c1 | inconclusive: 22.4 µM [inhibitor, single point] | –

Arranged by number of heavy atoms (smallest number first): some entries from above.
Row | SMILES | Potency | activity, negative = active
5 | CC1=CC(=C(C#N)C#N)c2ccccc2N1C | inconclusive: 35.5 µM [inhibitor, single point] | –
36 | Cc1ccc(NC(=S)NC(=O)CC2CC(C)(C)OC2=O)cc1 (stereo not given) | inconclusive: 5.62 µM [inhibitor, single point] | –
20 | Oc1ccc(N2CCN(C(=S)NCc3ccccc3)CC2)cc1 | inconclusive: 3.16 µM [inhibitor, single point] | –
7 | COc1ccc(C)cc1NC(=O)CSc1nc2scc(C)c2c(=O)[nH]1 | inconclusive: 22.4 µM [inhibitor, single point] | –
48 | Cc1ccc(C(=O)Nc2cccc(-c3nc4ccccc4o3)c2)c(Cl)c1 | inconclusive: 22.4 µM [inhibitor, single point] | –
6 | Cc1cc(/C=C(/C#N)c2nc3ccccc3[nH]2)c(C)n1-c1ccccc1C(=O)O | inconclusive: 35.5 µM [inhibitor, partial curve, poor fit] | –

Carrying on:

Row | SMILES | Potency | activity, negative = active
49 | O=C(CCC(=O)N(CC(=O)NC1CCCCC1)c1ccccc1F)Nc1nccs1 | inconclusive: 3.16 µM [inhibitor, partial curve, poor fit] | –
50 | O=[N+]([O-])c1ccc(N/N=C/c2c[nH]c3ccccc23)c(S(=O)(=O)Nc2ccc(Cl)cc2)c1 | active: 25.1 µM | –
51 | O=C(COC(=O)c1ccc2ccccc2n1)Nc1ccccc1F | inconclusive: 35.5 µM [inhibitor, single point] | –
52 | CCC(Cn1nnc2ccccc2c1=O)NC(=O)Nc1ccc(C)c(C)c1 (stereo not given) | – | inactive: 4.17%
53 | N#C/C(=C\c1coc2ccc(O)cc2c1=O)C(=O)Nc1nc2ccccc2s1 | inconclusive: 20 µM [inhibitor, partial curve, poor fit] | –
54 | CN1/C(=C/C=N/n2cnnc2)C(C)(C)c2ccccc21 | – | inactive: -2.3%
55 | CCOC(=O)CNC(=O)CSc1ncnc2c1cnn2-c1ccc(Cl)cc1 | – | inactive: -5.56%
56 | Cc1oc2c(c(C)cc3oc(=O)c(CC(=O)N[C@@H](C)C(=O)O)c(C)c32)c1C | inconclusive: 35.5 µM [inhibitor, single point] | –
57 | Cc1ccc2c(c1)N=C(c1ccccc1)CC(C(Cl)Cl)=N2 | inconclusive: 22.4 µM [inhibitor, partial curve, poor fit] | –
58 | CCOC(=O)CCNC(=O)CCNC(=O)C(c1ccccc1)c1ccccc1 | inconclusive: 2.82 µM [inhibitor, partial curve, poor fit] | –
59 | CCOC(=O)c1cc2c(=O)n3ccccc3nc2n(CC(C)C)c1=NC(=O)c1c(-c2c(F)cccc2Cl)noc1C | inconclusive: 35.5 µM [inhibitor, single point] | –
60 | O=C1C(O)CC2c3ccccc3CC3(CCCC3)N12 (stereo not given) | inconclusive: 31.6 µM [inhibitor, single point] | –
61 | O=c1[nH]c2cc3c(cc2cc1CN(Cc1cccs1)Cc1nnnn1Cc1ccco1)OCCO3 | inconclusive: 35.5 µM [inhibitor, single point] | –
62 | CC(=O)N1CCCc2cc(S(=O)(=O)N3CCC(C(=O)NCc4cccc(C)c4)CC3)ccc21 | – | inactive: -5.13%
63 | CCOC(=O)c1c(NC(=O)CSc2nc3ccc(OC)cc3[nH]2)sc2c1CC(C)(C)NC2(C)C | active: 25.1 µM | –
64 | CC(CCc1ccccc1)NC(=O)c1ccc(NC(=O)c2cccc(Br)c2)cc1 (stereo not given) | – | inactive: -2.01%
65 | Cc1[nH][nH]c(=O)c1C(c1ccc(-c2cccc(C(=O)O)c2)o1)c1c(C)[nH][nH]c1=O | – | inactive: 8.11%
66 | COC(=O)C(C)N=Cc1ccccc1 (stereo not given) | inconclusive: 25.1 µM [inhibitor, single point] | –
67 | Cc1nc(SCc2ccc(O)c([N+](=O)[O-])c2)n[nH]1 | – | inactive: 2.11%
68 | CCCc1nn2c(=O)c(C(c3ccc(C)cc3)c3c(O)nc4sc(CCC)nn4c3=O)c(O)nc2s1 | – | inactive: -4.65%
69 | O=C(CCS(=O)(=O)c1nc(-c2ccc3c(c2)OCO3)cc(C(F)(F)F)n1)Nc1ccccc1F | – | inactive: -6.61%
70 | CCCc1nc2oc3c(NCCCN(C)C)ncnc3c2c2c1CCCC2 | inconclusive: 17.8 µM [inhibitor, single point] | –
